Data published in article doi:10.1101/2025.08.13.669552.
Results are given in words; binding and its absence hold for the method and conditions named. Binding seen in cells or lysates may run through a third protein. Some binding calls cover weakened binding; strength is not graded here.

Target: T1, BATF (mouse (endogenous in Treg cells of Foxp3^hCD2 mice)) (UniProt O35284)
T1 sequence: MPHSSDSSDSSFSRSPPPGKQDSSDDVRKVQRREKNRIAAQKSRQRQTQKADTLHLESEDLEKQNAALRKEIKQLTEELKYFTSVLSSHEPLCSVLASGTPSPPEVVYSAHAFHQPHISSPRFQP
Assay: co-IP

binding: binds
B1: Foxp3 (protein, UniProt Q99JB6 1-417)
chain: MPNPRPAKPMAPSLALGPSPGVLPSWKTAPKGSELLGTRGSGGPFQGRDLRSGAHTSSSLNPLPPSQLQLPTVPLVMVAPSGARLGPSPHLQALLQDRPHFMHQLSTVDAHAQTPVLQVRPLDNPAMISLPPPSAATGVFSLKARPGLPPGINVASLEWVSREPALLCTFPRSGTPRKDSNLLAAPQGSYPLLANGVCKWPGCEKVFEEPEEFLKHCQADHLLDEKGKAQCLLQREVVQSLEQQLELEKEKLGAMQAHLAGKMALAKAPSVASMDKSSCCIVATSTQGSVLPAWSAPREAPDGGLFAVRRHLWGSHGNSSFPEFFHNMDYFKYHNMRPPFTYATLIRWAILEAPERQRTLNEIYHWFTRMFAYFRNHPATWKNAIRHNLSLHKCFVRVESEKGAVWTVDEFEFRKKR
